Test results as given in patent US20250283871A1, “COMPOSITIONS AND METHODS FOR MODULATING THE INTERACTION BETWEEN SS18-SSX FUSION ONCOPROTEIN AND NUCLEOSOMES” (Dana-Farber Cancer Institute, Inc., priority 2020, published 2025).

B1: BRD7 (protein, UniProt Q9NPI1 1-651, looked up)
Bromodomain-containing …: MGKKHKKHKSDKHLYEEYVEKPLKLVLKVGGNEVTELSTGSSGHDSSLFEDKNDHDKHKDRKRKKRKKGEKQIPGEEKGRKRRRVKEDKKKRDRDRVENEAEKDLQCHAPVRLDLPPEKPLTSSLAKQEEVEQTPLQEALNQLMRQLQRKDPSAFFSFPVTDFIAPGYSMIIKHPMDFSTMKEKIKNNDYQSIEELKDNFKLMCTNAMIYNKPETIYYKAAKKLLHSGMKILSQERIQSLKQSIDFMADLQKTRKQKDGTDTSQSGEDGGCWQREREDSGDAEAHAFKSPSKENKKKDKDMLEDKFKSNNLEREQEQLDRIVKESGGKLTRRLVNSQCEFERRKPDGTTTLGLLHPVDPIVGEPGYCPVRLGMTTGRLQSGVNTLQGFKEDKRNKVTPVLYLNYGPYSSYAPHYDSTFANISKDDSDLIYSTYGEDSDLPSDFSIHEFLATCQDYPYVMADSLLDVLTKGGHSRTLQEMEMSLPEDEGHTRTLDTAKEMEITEVEPPGRLDSSTQDRLIALKAVTNFGVPVEVFDSEEAEIFQKKLDETTRLLRELQEAQNERLSTRPPPNMICLLGPSYREMHLAEQVTNNLKELAQQVTPGDIVSTYGVRKAMGISIPSPVMENNFVDLTEDTEEPKKTDVAECGPGGS
B2: NAT10 (protein, UniProt Q9H0A0 1-1025, looked up)
RNA cytidine acetyltransferase: MHRKKVDNRIRILIENGVAERQRSLFVVVGDRGKDQVVILHHMLSKATVKARPSVLWCYKKELGFSSHRKKRMRQLQKKIKNGTLNIKQDDPFELFIAATNIRYCYYNETHKILGNTFGMCVLQDFEALTPNLLARTVETVEGGGLVVILLRTMNSLKQLYTVTMDVHSRYRTEAHQDVVGRFNERFILSLASCKKCLVIDDQLNILPISSHVATMEALPPQTPDESLGPSDLELRELKESLQDTQPVGVLVDCCKTLDQAKAVLKFIEGISEKTLRSTVALTAARGRGKSAALGLAIAGAVAFGYSNIFVTSPSPDNLHTLFEFVFKGFDALQYQEHLDYEIIQSLNPEFNKAVIRVNVFREHRQTIQYIHPADAVKLGQAELVVIDEAAAIPLPLVKSLLGPYLVFMASTINGYEGTGRSLSLKLIQQLRQQSAQSQVSTTAENKTTTTARLASARTLYEVSLQESIRYAPGDAVEKWLNDLLCLDCLNITRIVSGCPLPEACELYYVNRDTLFCYHKASEVFLQRLMALYVASHYKNSPNDLQMLSDAPAHHLFCLLPPVPPTQNALPEVLAVIQVCLEGEISRQSILNSLSRGKKASGDLIPWTVSEQFQDPDFGGLSGGRVVRIAVHPDYQGMGYGSRALQLLQMYYEGRFPCLEEKVLETPQEIHTVSSEAVSLLEEVITPRKDLPPLLLKLNERPAERLDYLGVSYGLTPRLLKFWKRAGFVPVYLRQTPNDLTGEHSCIMLKTLTDEDEADQGGWLAAFWKDFRRRFLALLSYQFSTFSPSLALNIIQNRNMGKPAQPALSREELEALFLPYDLKRLEMYSRNMVDYHLIMDMIPAISRIYFLNQLGDLALSAAQSALLLGIGLQHKSVDQLEKEIELPSGQLMGLFNRIIRKVVKLFNEVQEKAIEEQMVAAKDVVMEPTMKTLSDDLDEAAKEFQEKHKKEVGKLKSMDLSEYIIRGDDEEWNEVLNKAGPNASIISLKSDKKRKLEAKQEPKQSKKLKNRETKNKKDMKLKRKK
B3: VDAC2 (protein, UniProt P45880 2-294, looked up)
Non-selective voltage-gated …: ATHGQTCARPMCIPPSYADLGKAARDIFNKGFGFGLVKLDVKTKSCSGVEFSTSGSSNTDTGKVTGTLETKYKWCEYGLTFTEKWNTDNTLGTEIAIEDQICQGLKLTFDTTFSPNTGKKSGKIKSSYKRECINLGCDVDFDFAGPAIHGSAVFGYEGWLAGYQMTFDSAKSKLTRNNFAVGYRTGDFQLHTNVNDGTEFGGSIYQKVCEDLDTSVNLAWTSGTNCTRFGIAAKYQLDPTASISAKVNNSSLIGVGYTQTLRPGVKLTLSALVDGKSINAGGHKVGLALELEA
B4: CDC40 (protein, UniProt O60508 1-579, looked up)
Pre-mRNA-processing factor 17: MSAAIAALAASYGSGSGSESDSDSESSRCPLPAADSLMHLTKSPSSKPSLAVAVDSAPEVAVKEDLETGVHLDPAVKEVQYNPTYETMFAPEFGPENPFRTQQMAAPRNMLSGYAEPAHINDFMFEQQRRTFATYGYALDPSLDNHQVSAKYIGSVEEAEKNQGLTVFETGQKKTEKRKKFKENDASNIDGFLGPWAKYVDEKDVAKPSEEEQKELDEITAKRQKKGKQEEEKPGEEKTILHVKEMYDYQGRSYLHIPQDVGVNLRSTMPPEKCYLPKKQIHVWSGHTKGVSAVRLFPLSGHLLLSCSMDCKIKLWEVYGERRCLRTFIGHSKAVRDICFNTAGTQFLSAAYDRYLKLWDTETGQCISRFTNRKVPYCVKFNPDEDKQNLFVAGMSDKKIVQWDIRSGEIVQEYDRHLGAVNTIVFVDENRRFVSTSDDKSLRVWEWDIPVDFKYIAEPSMHSMPAVTLSPNGKWLACQSMDNQILIFGAQNRFRLNKKKIFKGHMVAGYACQVDFSPDMSYVISGDGNGKLNIWDWKTTKLYSRFKAHDKVCIGAVWHPHETSKVITCGWDGLIKLWD
B5: NSD2 (protein, UniProt O96028 1-1365, looked up)
Histone-lysine …: MEFSIKQSPLSVQSVVKCIKMKQAPEILGSANGKTPSCEVNRECSVFLSKAQLSSSLQEGVMQKFNGHDALPFIPADKLKDLTSRVFNGEPGAHDAKLRFESQEMKGIGTPPNTTPIKNGSPEIKLKITKTYMNGKPLFESSICGDSAADVSQSEENGQKPENKARRNRKRSIKYDSLLEQGLVEAALVSKISSPSDKKIPAKKESCPNTGRDKDHLLKYNVGDLVWSKVSGYPWWPCMVSADPLLHSYTKLKGQKKSARQYHVQFFGDAPERAWIFEKSLVAFEGEGQFEKLCQESAKQAPTKAEKIKLLKPISGKLRAQWEMGIVQAEEAASMSVEERKAKFTFLYVGDQLHLNPQVAKEAGIAAESLGEMAESSGVSEEAAENPKSVREECIPMKRRRRAKLCSSAETLESHPDIGKSTPQKTAEADPRRGVGSPPGRKKTTVSMPRSRKGDAASQFLVFCQKHRDEVVAEHPDASGEEIEELLRSQWSLLSEKQRARYNTKFALVAPVQAEEDSGNVNGKKRNHTKRIQDPTEDAEAEDTPRKRLRTDKHSLRKRDTITDKTARTSSYKAMEAASSLKSQAATKNLSDACKPLKKRNRASTAASSALGFSKSSSPSASLTENEVSDSPGDEPSESPYESADETQTEVSVSSKKSERGVTAKKEYVCQLCEKPGSLLLCEGPCCGAFHLACLGLSRRPEGRFTCSECASGIHSCFVCKESKTDVKRCVVTQCGKFYHEACVKKYPLTVFESRGFRCPLHSCVSCHASNPSNPRPSKGKMMRCVRCPVAYHSGDACLAAGCSVIASNSIICTAHFTARKGKRHHAHVNVSWCFVCSKGGSLLCCESCPAAFHPDCLNIEMPDGSWFCNDCRAGKKLHFQDIIWVKLGNYRWWPAEVCHPKNVPPNIQKMKHEIGEFPVFFFGSKDYYWTHQARVFPYMEGDRGSRYQGVRGIGRVFKNALQEAEARFREIKLQREARETQESERKPPPYKHIKVNKPYGKVQIYTADISEIPKCNCKPTDENPCGFDSECLNRMLMFECHPQVCPAGEFCQNQCFTKRQYPETKIIKTDGKGWGLVAKRDIRKGEFVNEYVGELIDEEECMARIKHAHENDITHFYMLTIDKDRIIDAGPKGNYSRFMNHSCQPNCETLKWTVNGDTRVGLFAVCDIPAGTELTFNYNLDCLGNEKTVCRCGASNCSGFLGDRPKTSTTLSSEEKGKKTKKKTRRRRAKGEGKRQSEDECFRCGDGGQLVLCDRKFCTKAYHLSCLGLGKRPFGKWECPWHHCDVCGKPSTSFCHLCPNSFCKEHQDGTAFSCTPDGRSYCCEHDLGAASVRSTKTEKPPPEPGKPKGKRRRRRGWRRVTEGK
B6: TRIM24 (protein, UniProt O15164 1-1050, looked up)
Transcription intermediary …: MEVAVEKAVAAAAAASAAASGGPSAAPSGENEAESRQGPDSERGGEAARLNLLDTCAVCHQNIQSRAPKLLPCLHSFCQRCLPAPQRYLMLPAPMLGSAETPPPVPAPGSPVSGSSPFATQVGVIRCPVCSQECAERHIIDNFFVKDTTEVPSSTVEKSNQVCTSCEDNAEANGFCVECVEWLCKTCIRAHQRVKFTKDHTVRQKEEVSPEAVGVTSQRPVFCPFHKKEQLKLYCETCDKLTCRDCQLLEHKEHRYQFIEEAFQNQKVIIDTLITKLMEKTKYIKFTGNQIQNRIIEVNQNQKQVEQDIKVAIFTLMVEINKKGKALLHQLESLAKDHRMKLMQQQQEVAGLSKQLEHVMHFSKWAVSSGSSTALLYSKRLITYRLRHLLRARCDASPVTNNTIQFHCDPSFWAQNIINLGSLVIEDKESQPQMPKQNPVVEQNSQPPSGLSSNQLSKFPTQISLAQLRLQHMQQQVMAQRQQVQRRPAPVGLPNPRMQGPIQQPSISHQQPPPRLINFQNHSPKPNGPVLPPHPQQLRYPPNQNIPRQAIKPNPLQMAFLAQQAIKQWQISSGQGTPSTTNSTSSTPSSPTITSAAGYDGKAFGSPMIDLSSPVGGSYNLPSLPDIDCSSTIMLDNIVRKDTNIDHGQPRPPSNRTVQSPNSSVPSPGLAGPVTMTSVHPPIRSPSASSVGSRGSSGSSSKPAGADSTHKVPVVMLEPIRIKQENSGPPENYDFPVVIVKQESDEESRPQNANYPRSILTSLLLNSSQSSTSEETVLRSDAPDSTGDQPGLHQDNSSNGKSEWLDPSQKSPLHVGETRKEDDPNEDWCAVCQNGGELLCCEKCPKVFHLSCHVPTLTNFPSGEWICTFCRDLSKPEVEYDCDAPSHNSEKKKTEGLVKLTPIDKRKCERLLLFLYCHEMSLAFQDPVPLTVPDYYKIIKNPMDLSTIKKRLQEDYSMYSKPEDFVADFRLIFQNCAEFNEPDSEVANAGIKLENYFEELLKNLYPEKRFPKPEFRNESEDNKFSDDSDDDFVQPRKKRLKSIEERQLLK

System: BAF complex subunits and histone proteins
Assay: Mass spectrometry proteomics of purified HA-SS18 WT and HA-SS18-SSX1 complexes (Tables 5A-5E)
Set-up: species or system human
Settings: for Total / Unique: HA-SS18SSX1_CHR_peptides; for Total: total peptides of the identified protein; for Unique: unique peptides of the identified protein
[1] = HA-SS18SSX1_CHR_peptides: protein identified in the HA-SS18-SSX1 purification from solubilized chromatin (CHR), HEK-293T
[2] = HA-SS18SSX1_NE_peptides: protein co-purified with HA-SS18-SSX1 BAF complexes from soluble nuclear extract (NE), HEK-293T cells
[3] = HA-SS18WT_CHR_peptides: protein identified in HA-SS18 WT BAF complex purification from nuclease-treated solubilized chromatin (CHR), HEK-293T
[4] = HA-SS18WT_NE_peptides: HA-SS18 WT complexes purified from nuclear extract (NE), HEK-293T, label = protein identified (Gene Symbol)
[5] = HA-SS18WT_CHR_peptides: HA-SS18 WT purification from nuclease-treated solubilized chromatin (CHR), HEK-293T, label = protein identified
[6] = HA-SS18SSX1 purification, NE (soluble nuclear extract) fraction, HEK-293T, peptides per identified protein

| Molecule | Total (total peptides) [1] | Unique (unique peptides) [1] | Total (peptides) [2] | Unique (peptides) [2] | Total (total peptides) [3] | Unique (unique peptides) [3] | Total (peptides) [4] | Unique (peptides) [4] | Total | Unique | Total (peptides) [5] | Unique (peptides) [5] | Total (total peptides) [6] | Unique (unique peptides) [6] |
| --- | --- | --- | --- | --- | --- | --- | --- | --- | --- | --- | --- | --- | --- | --- |
| B1 | 4 | 4 | 2 | 2 | 1 | 1 | 5 | 4 | – | – | – | – | – | – |
| B2 | 51 | 33 | 2 | 2 | 1 | 1 | 3 | 3 | 1 | 1 | 17 | 16 | – | – |
| B3 | 4 | 4 | – | – | – | – | 5 | 5 | – | – | 5 | 5 | 7 | 7 |
| B4 | – | – | – | – | 1 | 1 | – | – | 4 | 4 | – | – | – | – |
| B5 | – | – | – | – | – | – | – | – | 4 | 4 | 4 | 4 | – | – |
| B6 | – | – | – | – | – | – | – | – | 4 | 4 | – | – | – | – |
